The text below walks through data of the supplement of paper PMC4635364.

For experiment [1], the system named is ReNCell VM. As to the kind of experiment: neuronal differentiation score (DCX+ cell fraction vs untreated, manual image score) (score (-3 to 3)); higher = more neuronal differentiation. As to conditions: 2 uM, 2 weeks.
Experiment [2] deals with ReNCell VM. As to the kind of experiment: dopaminergic neuron differentiation score (TH+ cell fraction vs untreated, manual image score) (score (0 to 3)); higher = more TH+ dopaminergic neuron differentiation. The settings on record: 2 uM, 4 weeks, BDNF 10 ng/ml + GDNF 10 ng/ml.

Where a name gives a salt, the structure may show the parent alone. The list shows a part of the results. Repeats in this data set agree poorly, so a single value says little.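 ReNCell VM, a human fetal ventral-midbrain neural progenitor line, was differentiated without mitogens. Blinded raters scored images stained for doublecortin (early neurons) or tyrosine hydroxylase (dopaminergic neurons) against untreated wells (0 = no change). Scores were averaged across repeats and both raters, and compounds averaging 2 or more were selected as hits for retesting.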 *1 amine or outer side, *2 acyl side, *3 side chain or, on linkers, in order; H or OH if unused. Where a SMILES comes first, the peptide text is derived from it. Bridges are numbered along the chain shown (N, C = ends). [ ]: non-standard residue; d: D form. The star is where a group is joined. ξ: configuration not given here. X2 = N=C1NCCC([C@H](N[*:1])C(=O)[*:2])N1; ΔAla(Z-3-ureido) = NC(=O)N/C=C(\N)C(=O)O; ξβ3hOrn = NCCCC(N)CC(=O)*; Dap = NC[C@H](N)C(=O)O

Consider `N/C(=N\C(=O)c1nc(Cl)c(N)nc1N)NCc1ccc(Cl)c(Cl)c1` [3',4'-Dichlorobenzamil], for which, in the experiment on ReNCell VM [1] (library: LOPAC), the neuronal differentiation score was inactive: 0. The “dopaminergic neuron differentiation score” value with ReNCell VM [2] (library: LOPAC) was inactive: 0.

Regarding `Cc1ncc([N+](=O)[O-])n1CC(C)O` (configuration not stated) [Secnidazole], the neuronal differentiation score in the experiment with ReNCell VM [1] (library: Prestwick) was inactive: 0. Further, the “dopaminergic neuron differentiation score” value with ReNCell VM [2] (library: Prestwick) was inactive: 1.

Take `O=c1c(-c2ccc(O)cc2)coc2c([C@@H]3O[C@H](CO)[C@@H](O)[C@H](O)[C@H]3O)c(O)ccc12`: the neuronal differentiation score with ReNCell VM [1] (library: Spectrum) was inactive: 0. Further, in the experiment on ReNCell VM [2] (library: Spectrum), the “dopaminergic neuron differentiation score” value is inactive: 0.

As for `CC(CN(C)C)CN1c2ccccc2Sc2ccccc21` (configuration not stated), in the experiment on ReNCell VM [1] (library: Spectrum), the neuronal differentiation score is inactive: 0. In addition, the “dopaminergic neuron differentiation score” value in the experiment on ReNCell VM [2] (library: Spectrum) is inactive: 0.

Consider `N[C@@H](Cc1ccc(F)cc1)C(=O)O` [p-Fluoro-L-phenylalanine], for which the neuronal differentiation score in the experiment with ReNCell VM [1] (library: LOPAC) is inactive: 0. Further, the “dopaminergic neuron differentiation score” value with ReNCell VM [2] (library: LOPAC) was inactive: 1.

In the case of `Cc1cc(O)c2c(c1)C(=O)c1cc(O)cc(O)c1C2=O` [Emodin], the neuronal differentiation score with ReNCell VM [1] (library: LOPAC) is inactive: 0. Further, the “dopaminergic neuron differentiation score” value in the experiment with ReNCell VM [2] (library: LOPAC) is inactive: 0.

Consider `Cc1cccc(C)c1NC(=O)C1CCCCN1C` (configuration not stated) [Mepivacaine hydrochloride], for which, in the experiment with ReNCell VM [1] (library: Prestwick), the neuronal differentiation score was inactive: 0. Besides, the “dopaminergic neuron differentiation score” value in the experiment with ReNCell VM [2] (library: Prestwick) was inactive: 0.

For `N[C@@H](Cc1ccc(O)c(O)c1)C(=O)O`, the neuronal differentiation score in the experiment with ReNCell VM [1] (library: Spectrum) is inactive: 0. Also, in the experiment on ReNCell VM [2] (library: Spectrum), the “dopaminergic neuron differentiation score” value was inactive: 0.

Take `CC(=O)N[C@@H](CCC(=O)O)C(=O)O`: the neuronal differentiation score in the experiment with ReNCell VM [1] (library: Spectrum) is inactive: 0. Also, the “dopaminergic neuron differentiation score” value with ReNCell VM [2] (library: Spectrum) was inactive: 1.

For `CC[N+](C)(CC)CC(=O)Nc1c(C)cccc1C` [N-Methyllidocaine iodide], in the experiment on ReNCell VM [1] (library: Tocriscreen), the neuronal differentiation score is inactive: 0. The “dopaminergic neuron differentiation score” value with ReNCell VM [2] (library: Tocriscreen) is inactive: 0.

`Cn1cc(C(F)(F)F)nc1-c1ccc(OCC(O)CNCCOc2ccc(O)c(C(N)=O)c2)cc1` (configuration not stated): the neuronal differentiation score in the experiment on ReNCell VM [1] (library: LOPAC) was inactive: 0. In addition, the “dopaminergic neuron differentiation score” value in the experiment on ReNCell VM [2] (library: LOPAC) was inactive: 0.

For the compound `CC1=CC(=O)CC(C)(C)C1(O)/C=C/C(C)=C\C(=O)O` (mixture of isomers) [ABSCISIC ACID (cis,trans; +/-)], the neuronal differentiation score in the experiment on ReNCell VM [1] (library: Spectrum) was inactive: 0. Besides, the “dopaminergic neuron differentiation score” value in the experiment with ReNCell VM [2] (library: Spectrum) is inactive: 0.

Take `COc1ccc2oc(-c3ccccc3OC)cc(=O)c2c1`: in the experiment with ReNCell VM [1] (library: Spectrum), the neuronal differentiation score is inactive: 0. In the experiment with ReNCell VM [2] (library: Spectrum), the “dopaminergic neuron differentiation score” value was inactive: 0.

As to `CC(C)c1onc(-c2c(Cl)cccc2Cl)c1COc1ccc(/C=C/c2cccc(C(=O)O)c2)c(Cl)c1`, the neuronal differentiation score in the experiment with ReNCell VM [1] (library: Tocriscreen) is inactive: 0. The “dopaminergic neuron differentiation score” value with ReNCell VM [2] (library: Tocriscreen) was inactive: 0.

For the compound `C=C(C)[C@@H]1CC=C(C(=O)O)CC1`, the neuronal differentiation score in the experiment on ReNCell VM [1] (library: Spectrum) was inactive: 0. In addition, in the experiment on ReNCell VM [2] (library: Spectrum), the “dopaminergic neuron differentiation score” value is inactive: 0.

As for `C[C@]12CCC(=O)C=C1C=C[C@@H]1[C@@H]2CC[C@@]2(C)[C@H]1CC[C@@]21CCC(=O)O1`, the neuronal differentiation score in the experiment on ReNCell VM [1] (library: Spectrum) is active: 3. The “dopaminergic neuron differentiation score” value with ReNCell VM [2] (library: Spectrum) was inactive: 0.

On to `CC(C)C[C@H](NC(=O)[C@H](O)[C@H](N)Cc1ccccc1)C(=O)O` [Epibestatin hydrochloride], for which the neuronal differentiation score with ReNCell VM [1] (library: LOPAC) was inactive: 0. The “dopaminergic neuron differentiation score” value in the experiment with ReNCell VM [2] (library: LOPAC) is inactive: 0.

For the compound `COc1cc2ncc(-c3ccccc3)nc2cc1OC` [Tyrphostin AG 1296], the neuronal differentiation score with ReNCell VM [1] (library: LOPAC) is inactive: 0. Besides, the “dopaminergic neuron differentiation score” value in the experiment on ReNCell VM [2] (library: LOPAC) is inactive: 0.

Take `C[C@H]1COC2=C1C(=O)C(=O)c1c2ccc2c1CCCC2(C)C`: in the experiment with ReNCell VM [1] (library: Spectrum), the neuronal differentiation score is inactive: 0. Besides, the “dopaminergic neuron differentiation score” value with ReNCell VM [2] (library: Spectrum) was inactive: 0.

As to `N[C@@H](Cc1ccc(O)c(O)c1)C(=O)O` [L-3,4-Dihydroxyphenylalanine], the neuronal differentiation score with ReNCell VM [1] (library: LOPAC) was inactive: 0. For the same compound, in the experiment on ReNCell VM [2] (library: LOPAC), the “dopaminergic neuron differentiation score” value is inactive: 0.

Turning to `CCCOc1ccccc1-c1nc2[nH]nnc2c(=O)[nH]1`, the neuronal differentiation score in the experiment on ReNCell VM [1] (library: Spectrum) is inactive: 0. In addition, in the experiment with ReNCell VM [2] (library: Spectrum), the “dopaminergic neuron differentiation score” value was inactive: 0.

On to `C[C@@H]1O[C@@H](O[C@@H]2[C@@H](O)[C@H](OCCc3ccc(O)c(O)c3)O[C@H](CO)[C@H]2OC(=O)/C=C/c2ccc(O)c(O)c2)[C@H](O)[C@H](O)[C@H]1O` [acteoside], for which the neuronal differentiation score in the experiment on ReNCell VM [1] (library: Natural) was inactive: 0. In addition, the “dopaminergic neuron differentiation score” value with ReNCell VM [2] (library: Natural) was inactive: 0.

`C[C@H]1NC(=O)NC1=O` [Methylhydantoin-5-(D)]: the neuronal differentiation score with ReNCell VM [1] (library: Prestwick) was inactive: 0. In the experiment with ReNCell VM [2] (library: Prestwick), the “dopaminergic neuron differentiation score” value is inactive: 0.

As for `CCCC1O[C@@H]2C[C@H]3[C@@H]4CCC5=CC(=O)C=C[C@]5(C)[C@H]4[C@@H](O)C[C@]3(C)[C@]2(C(=O)CO)O1` (some centres not stated), in the experiment with ReNCell VM [1] (library: Spectrum), the neuronal differentiation score was inactive: 1. In addition, the “dopaminergic neuron differentiation score” value with ReNCell VM [2] (library: Spectrum) is inactive: 0.

With `C=CC(C)(O)CC1C(C)(O)CCC2C(C)(C)CCCC21C` (configuration not stated), the neuronal differentiation score with ReNCell VM [1] (library: Natural) is inactive: 0. Besides, the “dopaminergic neuron differentiation score” value in the experiment on ReNCell VM [2] (library: Natural) is inactive: 0.

Take `CCCCC(O)c1ccccc1` (configuration not stated) [Fenipentol]: the neuronal differentiation score in the experiment with ReNCell VM [1] (library: Prestwick) is inactive: 0. In the experiment on ReNCell VM [2] (library: Prestwick), the “dopaminergic neuron differentiation score” value was inactive: 0.

For `COC(=O)[C@H]1[C@H]2C[C@@H]3c4[nH]c5cc(OC)ccc5c4CCN3C[C@H]2C[C@@H](OC(=O)/C=C/c2cc(OC)c(OC)c(OC)c2)[C@@H]1OC` [reserpinine], the neuronal differentiation score in the experiment with ReNCell VM [1] (library: Natural) is inactive: 0. For the same compound, the “dopaminergic neuron differentiation score” value in the experiment on ReNCell VM [2] (library: Natural) is inactive: 0.

In the case of `C[C@@H]1NC(=O)[C@@H](N)CNC(=O)[C@H](C2CCNC(=N)N2)NC(=O)/C(=C/NC(N)=O)NC(=O)[C@H](CNC(=O)CC(N)CCCN)NC1=O.N=C1NCC[C@H]([C@@H]2NC(=O)/C(=C/NC(N)=O)NC(=O)[C@H](CNC(=O)C[C@@H](N)CCCN)NC(=O)[C@H](CO)NC(=O)[C@@H](N)CNC2=O)N1` (H-[Dap]S[Dap](ξβ3hOrn)[ΔAla(Z-3-ureido)][X2]; lactam 1-C), in the experiment with ReNCell VM [1] (library: Spectrum), the neuronal differentiation score was inactive: 0. In addition, the “dopaminergic neuron differentiation score” value in the experiment with ReNCell VM [2] (library: Spectrum) is inactive: 0.

Take `COC(=O)C1=CO[C@@H](O[C@@H]2O[C@H](CO)[C@@H](O)[C@H](O)[C@H]2O)[C@H]2[C@@H]1C(=O)C[C@@H]2C` [verbenalin]: the neuronal differentiation score in the experiment on ReNCell VM [1] (library: Natural) is inactive: 0. The “dopaminergic neuron differentiation score” value with ReNCell VM [2] (library: Natural) is inactive: 0.

On to `Cc1nc2c([nH]1)c(=O)n(C)c(=O)n2Cc1ccco1` [Furafylline], for which, in the experiment on ReNCell VM [1] (library: LOPAC), the neuronal differentiation score was inactive: 0. In addition, in the experiment on ReNCell VM [2] (library: LOPAC), the “dopaminergic neuron differentiation score” value was inactive: 0.

`CC(=O)OCC(=O)[C@@]1(O)CC[C@H]2[C@@H]3CCC4=CC(=O)CC[C@]4(C)[C@H]3[C@@H](O)C[C@@]21C` [Cortisol acetate]: the neuronal differentiation score in the experiment with ReNCell VM [1] (library: Prestwick) was inactive: 0. The “dopaminergic neuron differentiation score” value in the experiment with ReNCell VM [2] (library: Prestwick) is inactive: 0.
